# Source: PubChem BioAssay AID504648 (National Center for Advancing Translational Sciences (NCATS), 2011)
# Out of some 390,000 compounds screened, about 610 (0.16%) were called active. Inconclusive means that the source gave no clear call. Such entries were picked first, then a sample of the others. Calls follow the shape of the dose curve; as a rule, active = well fitted inhibition curve with a large enough effect; inconclusive = small, poorly fitted or top-dose-only effect, or effect the other way, or another doubt; inactive = no such curve, though single readings can be large or run the other way. Where the call is inconclusive, the potency comes from a doubtful curve fit.
# Assay: Nrf2 qHTS screen for inhibitors: counterscreen for cytotoxicity
# Settings: A549 ARE-Fluc cells, CellTiter-Fluor viability, 18-24 h; series mostly up to 46 µM
# Summary of the method: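 A549 ARE_Fluc cells in 5% FBS OPTI-MEM were exposed to compounds in concentration-response for 18-24 h at 37 deg C. Viability was read by CellTiter-Fluor fluorescence (Ex 405/Em 525) after 30 min, before the luciferase read.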
# Potency is read from the fitted curve at half-maximal effect.
row,SMILES,Potency
1,CCOc1ccc(NS(=O)(=O)c2cc(NC(=O)c3cccc(C)c3)ccc2Cl)cc1,"inconclusive: 25.9 µM [falling, single point]"
2,CCC(CC)COC(=O)C1=C(C)NC(=O)NC1c1ccc([N+](=O)[O-])cc1 (configuration not stated),"inconclusive: 13 µM [falling, partial curve, poor fit]"
3,CC(=O)c1cccc(NC(=O)C(CC(C)C)NS(=O)(=O)c2ccc3c(c2)CCN3C(C)=O)c1 (configuration not stated),"inconclusive: 32.6 µM [activator, partial curve, poor fit]"
4,CCCOc1ccc(/C=N/NC(=S)Nc2ccccc2[N+](=O)[O-])c(O)c1,inactive
5,CC(=O)NS(=O)(=O)c1ccc(NC(=O)c2cccc(OCc3c(C)noc3C)c2)cc1,inactive
6,CCSC1=NC(=O)/C(=C2/C=Cc3ccccc3N2CC)S1,"inconclusive: 23.1 µM [falling, single point]"
7,COc1cc(/C=C2\SC(=S)N(NC(=O)c3ccncc3)C2=O)ccc1O,active: 20.6 µM
8,O=c1c(CO)cc(CO)cc(CO)c1O,inactive
9,Cc1cc(C)n(C(=O)Cn2nc(C(F)F)cc2C)n1,"inconclusive: 3.66 µM [activator, partial curve, poor fit]"
10,Cc1ccc(Cl)cc1N1CCN(C(=O)c2c(C)oc3ncnc(N4CCCCC4)c23)CC1,inactive
11,COc1ccc(Cl)cc1NC(=O)CN1C(=O)C(C)(C)c2cc(S(=O)(=O)N3CCCCC3)ccc21,inactive
12,Cc1ccc(C(NC(=O)C(C)C)c2cc([N+](=O)[O-])c3cccnc3c2O)cc1 (configuration not stated),"inconclusive: 10.3 µM [falling, partial curve]"
13,CC(C)C1C(=O)Nc2ccc(S(=O)(=O)NCCc3ccc(Cl)cc3)cc21 (configuration not stated),inactive
14,Cc1cc(N2CCN(C)CC2)nc2ccc(NC(=O)Nc3cccc(Cl)c3)cc12,"inconclusive: 25.9 µM [falling, partial curve, poor fit]"
15,O=C(NCCN1CCN(c2cccc(Cl)c2)CC1)Nc1ccccc1C(F)(F)F,"inconclusive: 32.6 µM [falling, partial curve, poor fit]"
16,Cc1ccc(C(=O)CN2/C(=C(\O)c3ccccc3)C(=O)c3ccccc3S2(=O)=O)c(C)c1,"inconclusive: 20.6 µM [falling, partial curve, poor fit]"
17,O=C(N/N=C/c1sc(N2CCOCC2)nc1-c1ccccc1)c1cccc(S(=O)(=O)N2CCCC2)c1,"inconclusive: 6.51 µM [falling, full curve]"
18,CCOC(=O)COc1c(C=O)cc(Br)cc1OC,"inconclusive: 7.31 µM [activator, partial curve, poor fit]"
19,O=C(Cn1c(=O)oc2ccccc21)NCCc1ccccc1,inactive
20,COc1ccc2ccccc2c1CNCc1ccccn1,"inconclusive: 5.17 µM [activator, full curve, poor fit]"
21,CCOC(=O)c1[nH]c(C)c(C(=O)Nc2ccc(C)c(F)c2)c1C,"inconclusive: 18.4 µM [falling, partial curve]"
22,COc1ccc(S(=O)(=O)N2CCC(C(=O)N[C@H](C(=O)N3CCCC3)C(C)C)CC2)cc1,"inconclusive: 20.6 µM [falling, single point]"
23,CCCCCn1c(=O)[nH]c2cc(C(=O)N3CCN(Cc4ccc5c(c4)OCO5)CC3)ccc2c1=O,"inconclusive: 7.31 µM [falling, partial curve, poor fit]"

row,SMILES,Potency
1,CCOC(=O)C(=Cc1cc(=O)c(OC)co1)C(=O)OCC,active: 14.6 µM
2,CCCN1C(=O)/C(=C2/C=Cc3ccccc3N2CC)SC1=S,active: 14.6 µM
3,CC(C)Oc1cccc(C(=O)NC(=S)Nc2cccc(NC(=O)c3ccccc3Cl)c2)c1,inactive
4,N#C/C(=N\Nc1ccc(F)cc1)C(=N)N1CCCCCC1,"inconclusive: 18.4 µM [falling, partial curve, poor fit]"
5,Cc1cc(C)n(-c2nc3ccccc3nc2Nc2ccc(CC(=O)O)cc2)n1,"inconclusive: 23.1 µM [falling, partial curve, poor fit]"
6,COc1ccc(C(=O)Cn2c(C(=O)/C=C/c3ccccc3)nc3ccccc32)cc1,inactive
7,Cc1cc(C)c(NC(=O)CSc2nc3c([nH]c4ccccc43)c(=O)n2C)c(C)c1,inactive
8,C=CCN1C(=O)C(CC(=O)Nc2ccc(OCCC)cc2)N(CCCN2CCN(Cc3ccccc3)CC2)C1=S (configuration not stated),"inconclusive: 29.1 µM [falling, single point]"
9,CC(C)Oc1cc(NC(=O)CS(=O)CC(=O)Nc2cccc(C(F)(F)F)c2)c(Cl)cc1Cl (configuration not stated),"inconclusive: 23.1 µM [falling, single point]"
10,Cc1ccc(S(=O)(=O)N2CCN(c3nc(-c4ncccn4)nc4ccccc34)CC2)cc1,inactive
11,CCCOc1cccc(C2c3c(oc4ccc(F)cc4c3=O)C(=O)N2c2nc(C)c(C(C)=O)s2)c1 (configuration not stated),inactive
12,O=C(O)c1ccc(N=N/C(=N\Nc2ccc(C(=O)O)cc2)c2ccccc2)cc1,"inconclusive: 23.1 µM [falling, single point]"
13,CCc1ccc(-c2nc(CS(=O)CC(=O)NCCCN3CCOCC3)c(C)o2)cc1 (configuration not stated),inactive
14,COc1cccc2c1cc1c(=O)n(CC(=O)N3CCC(C)CC3)nc(C)n12,inactive
15,O=C(N/N=C/c1ccc([N+](=O)[O-])o1)C(O)c1ccccc1 (configuration not stated),"inconclusive: 23.1 µM [falling, partial curve, poor fit]"
16,Cc1cccc(-c2nc(CN3CCCC(C(=O)NC4CCCCC4)C3)c(C)o2)c1 (configuration not stated),inactive
17,CCSc1ccc2c(c1)N(CCCN1CCN(C)CC1)c1ccccc1S2,inactive
18,Cc1ccc(S(=O)(=O)N2CCOCC2)cc1NC(=O)C(c1ccc(Cl)cc1)C(C)C (configuration not stated),"inconclusive: 29.1 µM [falling, single point]"
19,COCCCn1c(=N)c(C(=O)NC2CCCCC2)cc2c(=O)n3cc(C)ccc3nc21,inactive
20,Cc1cccc(Oc2sc(C(=O)c3ccccc3)c(N)c2C#N)c1C,inactive
21,COc1ccc(N(C)S(=O)(=O)c2cccc(C(=O)N3CCN(c4cccc(C)c4C)CC3)c2)cc1,"inconclusive: 29.1 µM [falling, partial curve, poor fit]"
22,COc1cc(-c2ccc3c(=O)c4ccccc4n(C)c3c2)cc(OC)c1OC,"inconclusive: 18.4 µM [falling, partial curve, poor fit]"
23,O=C(Nc1ccc(Cl)cc1)c1cc(S(=O)(=O)NC2CCCCCC2)ccc1F,"inconclusive: 18.4 µM [falling, single point]"

row,SMILES,Potency
1,COc1ccc(Cn2c(C(=O)O)c(CNC3CCCCC3)c3ccc(C)cc32)cc1,"inconclusive: 20.6 µM [falling, partial curve, poor fit]"
2,COc1ccc(OC)c(/C=C(\C#N)c2nc(-c3ccc(F)cc3)cs2)c1,"inconclusive: 6.51 µM [activator, partial curve, poor fit]"
3,CCOc1ccc(N2C(=O)C(CC(=O)Nc3ccccc3)N(Cc3ccccn3)C2=S)cc1 (configuration not stated),"inconclusive: 18.4 µM [falling, single point]"
4,CC(C)C(=O)Nc1cccc(COc2ccccc2CN(Cc2ccccc2)C(=O)OC(C)(C)C)c1,inactive
5,NS(=O)(=O)c1cccnc1Nc1c(Cl)cccc1Cl,"inconclusive: 18.4 µM [falling, single point]"
6,Nc1c(C(=O)c2ccccc2)sc(Nc2ccc(Cl)c(Cl)c2)c1C(=O)Nc1ccccc1,"inconclusive: 20.6 µM [falling, single point]"
7,CC1CCCN(CC(O)COc2ccc3c(c2)OCO3)C1 (configuration not stated),"inconclusive: 25.9 µM [activator, partial curve, poor fit]"
8,O=C(Nc1ccccn1)c1cc2cc([N+](=O)[O-])ccc2s1,inactive
9,O=C1CSC(=S)N1Cc1cccnc1,"inconclusive: 29.1 µM [falling, partial curve, poor fit]"
10,OC(CNCC1COc2ccccc2O1)COCc1cccs1 (configuration not stated),"inconclusive: 4.11 µM [activator, partial curve, poor fit]"
11,NC(=O)CC(NC(=O)Cc1cccc2ccccc12)c1ccc(N2CCc3ccccc3C2)c([N+](=O)[O-])c1 (configuration not stated),"inconclusive: 23.1 µM [falling, single point]"
12,Cc1nn(-c2ccccc2)c(C)c1/C=N/n1c(-c2ccc(C(C)(C)C)cc2)n[nH]c1=S,"inconclusive: 29.1 µM [falling, single point]"
13,Cc1c(CN2CCC(CO)(Cc3cccc(C(F)(F)F)c3)CC2)c2ccccc2n1C,inactive
14,O=C(CNS(=O)(=O)c1cccc(Cl)c1)Nc1ccc(-c2nc3ccccc3s2)cc1,inactive
15,CCCNc1nc2c(c(=O)n(C)c(=O)n2C)n1CCCc1ccccc1,inactive
16,CCCCC1=CC2=C(c3ccco3)C(=O)C(C)(OC(=O)c3ccc(OC)cc3)C(=O)C2=CN1C1CC1 (configuration not stated),"inconclusive: 23.1 µM [falling, partial curve, poor fit]"
17,Cc1cccc(NC(=S)N2CCC(N(C)CC3CCCO3)CC2)c1C (configuration not stated),"inconclusive: 32.6 µM [falling, partial curve, poor fit]"
18,O=C1CCCC2=C1C1(CCCOC1)N=C(Nc1nc3ccccc3o1)N2 (configuration not stated),inactive
19,CCOc1ccc(N2CC(c3nc4ccccc4n3CCOc3ccccc3)CC2=O)cc1 (configuration not stated),"inconclusive: 29.1 µM [falling, single point]"
20,COc1cccc(C2C3=C(N=c4s/c(=C\c5cccc(O)c5)c(=O)n42)c2ccccc2CC3)c1OC (configuration not stated),"inconclusive: 29.1 µM [falling, partial curve, poor fit]"
21,CCCCNc1c(-c2ccc(SC(C)CC)c(OC)c2)nc2ccc(C)cn12 (configuration not stated),"inconclusive: 29.1 µM [falling, single point]"

# Sorted by heavy-atom count (smallest number first): part of the list above
row,SMILES,Potency
6,CCSC1=NC(=O)/C(=C2/C=Cc3ccccc3N2CC)S1,"inconclusive: 23.1 µM [falling, single point]"
2,COc1ccc(OC)c(/C=C(\C#N)c2nc(-c3ccc(F)cc3)cs2)c1,"inconclusive: 6.51 µM [activator, partial curve, poor fit]"
5,Cc1cc(C)n(-c2nc3ccccc3nc2Nc2ccc(CC(=O)O)cc2)n1,"inconclusive: 23.1 µM [falling, partial curve, poor fit]"
16,CCCCC1=CC2=C(c3ccco3)C(=O)C(C)(OC(=O)c3ccc(OC)cc3)C(=O)C2=CN1C1CC1 (configuration not stated),"inconclusive: 23.1 µM [falling, partial curve, poor fit]"
